PubChem BioAssay AID686938 | Drosophila RNAi Screening Center | 2013
In all, the deposit lists about 23,000 reagents; shown is an unselected part of those with a known target gene and a result. Over the whole deposit, 75 (0.33%) were called active. 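Raw plate signals without normalisation; calls rest on plate z-scores that were not deposited; ratio present for only 364 wells.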 Unmarked entries are inactive. Not given: the dose of the treatment.

Aim: 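Knock-downs reducing store-operated calcium influx in Drosophila cells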 (primary screen)
Cell system: Drosophila S2R+ cells
Reagent: long dsRNA against Drosophila genes, about 0.25 µg dsRNA per well, roughly 10,000 cells
Duration: 5 days of knock-down before the calcium assay
Conditions: thapsigargin (SERCA pump blocker) to empty calcium stores; entry signal taken 4 min after adding it
Measurement: 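Per-well fluo-4 fluorescence in two replicates, unnormalised, measured in resting cells and 4 min after store depletion by the SERCA blocker thapsigargin; ratio of the two present in few wells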
Direction: calcium entry signal: higher = stronger calcium signal after store depletion; entry to resting ratio: higher = more calcium entry relative to resting level; resting calcium signal: higher = higher resting calcium signal
Active means: 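Called when the plate z-score of the entry-to-rest ratio, mean of duplicates, falls below −3; wells with low overall dye signal (Fmax z below −2) or more than five off-targets excluded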
Meaning of the calls: active = strongly reduced calcium entry; inactive = no strong reduction

no.	predicted target	dsRNA	calcium entry signal, replicate 1 (fluorescence units)	calcium entry signal, replicate 2 (fluorescence units)	entry to resting ratio	resting calcium signal, replicate 1 (fluorescence units)	resting calcium signal, replicate 2 (fluorescence units)
1	CG32369	DRSC10042	3.49e7	4.27e7		1.82e7	2.20e7
2	CG32369	DRSC10834	5.28e7	4.27e7		3.66e7	1.87e7
3	jtb (jetboil)	DRSC06868	5.77e7	6.92e7		2.49e7	3.28e7
4	kud (kuduk)	DRSC11086	3.32e7	4.66e7		1.67e7	1.89e7
5	Moca-cyp	DRSC15364	3.11e7	5.05e7		1.50e7	2.22e7
6	CG13428	DRSC06390	5.28e7	3.34e7		2.16e7	1.64e7
7	CG5916	DRSC15917	2.89e7	2.41e7		1.39e7	1.14e7
8	Rrp46	DRSC15537	2.38e7	2.29e7		1.45e7	1.36e7
9	mEFTu1 (mitochondrial translation elongation factor Tu 1)	DRSC06959	2.80e7	3.45e7		1.23e7	1.60e7
10	eIF3f1 (eukaryotic translation initiation factor 3 subunit f1)	DRSC12328	1.59e7	2.41e7		1.12e7	1.58e7
11	CG10654	DRSC09767	2.28e7	2.60e7		1.13e7	1.19e7
12	CIAPIN1 (Cytokine induced apoptosis inhibitor 1)	DRSC03559	5.21e7			2.69e7	
13	insv (insensitive)	DRSC00579	4.22e7	5.34e7		1.93e7	2.30e7
14	sgg (shaggy)	DRSC17228	4.86e7	4.85e7		2.49e7	2.19e7
15	sgg (shaggy)	DRSC17722	5.27e7	4.91e7		2.77e7	2.16e7
16	sgg (shaggy)	DRSC18832	3.68e7	5.89e7	1.9	1.93e7	2.27e7
17	CG43136	DRSC17417	2.53e7	3.68e7		1.25e7	1.66e7
18	CG5290	DRSC10501	3.12e7	3.56e7		1.41e7	2.35e7
19	Ifrd1 (Interferon-related developmental regulator 1)	DRSC00415	2.50e7	1.93e7		1.27e7	9.68e6
20	Ifrd1 (Interferon-related developmental regulator 1)	DRSC00566	2.75e7	2.28e7		1.37e7	1.16e7
21	CG34278	DRSC13208	3.89e7	4.26e7		2.03e7	2.11e7
22	CG12123	DRSC17818	2.23e7	2.66e7		1.07e7	1.16e7
23	CG14339	DRSC00369	6.27e7	5.40e7		2.45e7	2.13e7
24	CG31821	DRSC22162	2.81e7	4.44e7		1.37e7	2.29e7
25	CG15515	DRSC15054	3.96e7	6.69e7		2.05e7	2.84e7
26	CG34345	DRSC02126	2.19e7	3.15e7		1.23e7	1.27e7
27	CG17327	DRSC15225	1.99e7	2.72e7		1.01e7	4.68e7
28	CG5321	DRSC19940	3.16e7	3.58e7		1.71e7	1.67e7
29	CG5321	DRSC22802	3.36e7	4.20e7		1.60e7	2.05e7
30	CG34347	DRSC14047	6.66e7	4.10e7		3.37e7	1.87e7
31	CG34347	DRSC14305	4.11e7	4.51e7		2.19e7	2.17e7
32	CG34347	DRSC15104	4.05e7	3.23e7		2.01e7	1.51e7
33	CG34347	DRSC15105	4.55e7	2.28e7		2.16e7	1.39e7
34	CG34347	DRSC23044	3.73e7	3.32e7		1.88e7	1.59e7
35	Frl (Formin-like)	DRSC09300	3.17e7	2.94e7		1.51e7	1.34e7
36	Frl (Formin-like)	DRSC10027	3.35e7	3.62e7		1.51e7	1.57e7
37	Frl (Formin-like)	DRSC10716	3.69e7	4.24e7		1.61e7	2.20e7
38	CG6761	DRSC10705	5.29e7	3.93e7		3.38e7	1.63e7
39	Bace (beta-site APP-cleaving enzyme)	DRSC02197	3.96e7	1.86e7		1.98e7	1.07e7
40	Pmvk (Phosphomevalonate kinase)	DRSC02032	4.46e7	4.68e7		2.19e7	2.04e7
